Taken from: PubChem BioAssay AID1259254 (NCATS, 2017)
Shown is one part, drawn at random, of about 59,000 deposited reagents. Over the whole deposit, about 1,550 (2.6%) got an active call. 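G2 share is only a proxy for re-replication; each gene was hit by three separate siRNAs, and active genes were retested.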 The numbers tell different reagents against one gene apart. Not all columns of the deposit are shown. The record does not give: the amount of reagent.

- Screen: 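Finding genes that stop cells copying their DNA twice in one cycle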 (primary screen)
- Cells: human HCT116 colorectal cancer cells
- Knock-down reagent: single siRNA against human genes
- Time to read-out: 3 days
- Measured: 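Imaged Hoechst DNA stain sorts each cell into a cycle phase by DNA amount; per plate, G2 fraction set to 0% for non-targeting and 100% for GMNN siRNA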
- Direction: G2 robust z-score and G2 cells, % of GMNN control: higher = more G2 cells, more excess DNA replication
- Hit rule: 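An siRNA counts as active if its G2 robust z-score lies at least 5 MADs above the screen median; here such calls match roughly 38% of GMNN control or more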

gene	reagent	G2 robust z-score	G2 cells, % of GMNN control	Outcome
KCNQ3 (GeneID 3786)	1	2.13	17.9	inactive
KCNQ3 (GeneID 3786)	2	-0.387	0.241	inactive
KCNQ3 (GeneID 3786)	3	2.02	17.2	inactive
UBE2Z (GeneID 65264)	1	-1.1	-4.76	inactive
UBE2Z (GeneID 65264)	2	1.16	11.2	inactive
UBE2Z (GeneID 65264)	3	0.671	7.69	inactive
SPHAR (retired record) (GeneID 10638)	1	0.703	7.91	inactive
SPHAR (retired record) (GeneID 10638)	2	0.518	6.61	inactive
SPHAR (retired record) (GeneID 10638)	3	0.621	7.34	inactive
SPRY2 (GeneID 10253)	1	-0.927	-3.56	inactive
SPRY2 (GeneID 10253)	2	0.693	7.85	inactive
SPRY2 (GeneID 10253)	3	-1.14	-5.03	inactive
LIMS3 (GeneID 96626)	1	-0.89	-3.3	inactive
LIMS3 (GeneID 96626)	2	-1.12	-4.89	inactive
LIMS3 (GeneID 96626)	3	-0.702	-1.97	inactive
RMI1 (GeneID 80010)	1	1.92	16.5	inactive
RMI1 (GeneID 80010)	2	-0.302	0.842	inactive
RMI1 (GeneID 80010)	3	-1.05	-4.45	inactive
ZNF333 (GeneID 84449)	1	0.195	4.34	inactive
ZNF333 (GeneID 84449)	2	-1.12	-4.9	inactive
ZNF333 (GeneID 84449)	3	-0.399	0.157	inactive
APLP1 (GeneID 333)	1	0.314	5.18	inactive
APLP1 (GeneID 333)	2	-0.248	1.22	inactive
APLP1 (GeneID 333)	3	0.821	8.74	inactive
EDA2R (GeneID 60401)	1	0.391	5.72	inactive
EDA2R (GeneID 60401)	2	-1.02	-4.22	inactive
EDA2R (GeneID 60401)	3	-1.12	-4.89	inactive
C9orf57 (GeneID 138240)	1	1.63	14.4	inactive
C9orf57 (GeneID 138240)	2	10.3	75.1	active
C9orf57 (GeneID 138240)	3	-0.59	-1.18	inactive
ADAM10 (GeneID 102)	1	-1.31	-6.25	inactive
ADAM10 (GeneID 102)	2	-0.716	-2.07	inactive
ADAM10 (GeneID 102)	3	0.0489	3.31	inactive
RBFOX1 (GeneID 54715)	1	2.45	20.2	inactive
RBFOX1 (GeneID 54715)	2	3.98	31	inactive
RBFOX1 (GeneID 54715)	3	1.88	16.2	inactive
LOC729866 (retired record) (GeneID 729866)	1	2.95	23.8	inactive
LOC729866 (retired record) (GeneID 729866)	2	-1.18	-5.3	inactive
LOC729866 (retired record) (GeneID 729866)	3	-0.489	-0.474	inactive
MAOB (GeneID 4129)	1	-0.866	-3.13	inactive
MAOB (GeneID 4129)	2	1.3	12.1	inactive
MAOB (GeneID 4129)	3	-0.309	0.797	inactive
CHRNA2 (GeneID 1135)	1	-0.337	0.6	inactive
CHRNA2 (GeneID 1135)	2	0.815	8.7	inactive
CHRNA2 (GeneID 1135)	3	-0.737	-2.22	inactive
SELENOV (GeneID 348303)	1	0.716	8.01	inactive
SELENOV (GeneID 348303)	2	0.157	4.07	inactive
SELENOV (GeneID 348303)	3	1.16	11.1	inactive
SIM1 (GeneID 6492)	1	-1.05	-4.4	inactive
SIM1 (GeneID 6492)	2	-0.503	-0.571	inactive
SIM1 (GeneID 6492)	3	-0.234	1.32	inactive
PRR27 (GeneID 401137)	1	0.922	9.45	inactive
PRR27 (GeneID 401137)	2	0.276	4.91	inactive
PRR27 (GeneID 401137)	3	-0.0526	2.6	inactive
PARP1 (GeneID 142)	1	2.57	21.1	inactive
PARP1 (GeneID 142)	2	1.75	15.3	inactive
PARP1 (GeneID 142)	3	-0.166	1.8	inactive
COL18A1 (GeneID 80781)	1	-0.513	-0.64	inactive
COL18A1 (GeneID 80781)	2	-0.0876	2.35	inactive
COL18A1 (GeneID 80781)	3	-0.258	1.15	inactive
BIN2 (GeneID 51411)	1	-0.875	-3.19	inactive
BIN2 (GeneID 51411)	2	0.687	7.8	inactive
BIN2 (GeneID 51411)	3	0.609	7.25	inactive
MT1M (GeneID 4499)	1	-0.137	2	inactive
MT1M (GeneID 4499)	2	-0.341	0.568	inactive
MT1M (GeneID 4499)	3	2.03	17.2	inactive
TARBP2 (GeneID 6895)	1	-0.576	-1.08	inactive
TARBP2 (GeneID 6895)	2	-0.789	-2.58	inactive
TARBP2 (GeneID 6895)	3	3.12	24.9	inactive

As entered above:
SIM1 (GeneID 6492) #2, G2 cells, % of GMNN control = -0.571
Under “Outcome”, PARP1 (GeneID 142) #1 shows inactive
CHRNA2 (GeneID 1135) #2, G2 cells, % of GMNN control = 8.7
SPHAR (retired record) (GeneID 10638) #3, G2 cells, % of GMNN control → 7.34
PRR27 (GeneID 401137) #2, G2 robust z-score: 0.276
RMI1 (GeneID 80010) #3, G2 cells, % of GMNN control: -4.45
